{
  "sequences": {"note": "Chains of the proteins cited; added tags and fusions are not shown.", "UniProt P35201": "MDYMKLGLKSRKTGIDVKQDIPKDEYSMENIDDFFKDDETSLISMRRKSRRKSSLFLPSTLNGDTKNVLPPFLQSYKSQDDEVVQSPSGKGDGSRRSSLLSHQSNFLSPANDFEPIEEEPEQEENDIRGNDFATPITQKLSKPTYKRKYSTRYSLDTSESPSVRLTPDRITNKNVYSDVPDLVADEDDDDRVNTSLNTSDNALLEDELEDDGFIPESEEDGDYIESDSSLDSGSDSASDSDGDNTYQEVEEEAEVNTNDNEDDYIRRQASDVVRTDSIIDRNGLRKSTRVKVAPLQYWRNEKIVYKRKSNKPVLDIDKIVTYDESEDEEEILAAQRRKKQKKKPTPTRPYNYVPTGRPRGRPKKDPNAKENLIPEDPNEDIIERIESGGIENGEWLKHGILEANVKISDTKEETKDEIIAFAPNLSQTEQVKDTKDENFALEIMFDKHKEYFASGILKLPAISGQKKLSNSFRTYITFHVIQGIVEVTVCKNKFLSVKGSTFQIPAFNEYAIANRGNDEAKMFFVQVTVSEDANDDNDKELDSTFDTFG"},
  "source": "paper PMC7367685",
  "about": "“Reconstitution reveals two paths of force transmission through the kinetochore” (eLife, 2020)",
  "binders": {"B1": {"name": "2D-MIND complex (FLAG-Nsl1, S240D, S250D-Dsn1, Mtw1, Nnf1) (complex, S. cerevisiae)", "chain 1": "MSQGQSKKLDVTVEQLRSIYHQFHDILEEKTDLHLPKKEYDDDAVRREVQIQLQEFLLSAMTMASKSLEVVNADTVGKTVKQLIMESQEKYMEPFDLDLNEQVRKMYQEWEDETVKVAQLRQTGPAKINEVYNNSKDEYLAQLDGRIGVLQARMMQQQSADHDDSTDDADDHINWEHIKQDYVASLNELYQTQQDLPKVRYNVEKVKRLMDFLEED", "chain 2": "MSLEPTQTVSGTPPMLHQRTHKQVYPLRMETIPILESDSKATLQSNEPTQKDEEETEYFENKQSVSNLSPDLKFKRHKNKHIQGFPTLGERLDNLQDIKKAKRVENFNSSAPIADDNHSGDATANATANATANATANVNASAMPAPYMPYYYYYHPMNAPTPAMIPYPGSPMHSIMPNSSLQPFYSQPTAAGGPDMTTPQNISSSQQLLPAPQLFPYGSFHQQQLQQPHYIQRTRERKKDIGSQRGRRLDMLASQANGGSTIISPHKDIPEEDFYTVVGNASFGKNLQIRQLFNWCLMRSLHKLELKAKNQEEEGELEHLTKKSKLESTKAETDYVDPKRLAMVIIKEFVDDLKKDHIAIDWEDEEKYEDEDEEKILDNTENYDDTELRQLFQENDDDDDDDDEVDYSEIQRSRRKFSERRKALPKEPKKLLPNSKNVENTKNLSILTSKVNAIKNEVKEWAVTLDTSRPDLEWQELTSFSSQPLEPLSDTEEPDLAIADVETKLETKVDELRYQSHILNSHSLALNEITNSKVNKLNIETMRKISSETDDDHSQVINPQQLLKGLSLSFSKKLDL", "chain 3": "MSAPTMRSTSILTEHLGYPPISLVDDIINAVNEIMYKCTAAMEKYLLSKSKIGEEDYGEEIKSGVAKLESLLENSVDKNFDKLELYVLRNVLRIPEEYLDANVFRLENQKDLVIVDENELKKSEEKLREKVNDVELAFKKNEMLLKRVTKVKRLLFTIRGFKQKLNELLKCKDDVQLQKILESLKPIDDTMTLLTDSLRKLYVDSESTSSTEEVEALLQRLKTNGKQNNKDFRTRYIDIRTNNVLRKLGLLGDKEDEKQSAKPDARTQAGDIVSIDIEEPQLDLLDDVL", "chain 4": "MVNSHGIRYIRLKQVFNRALDQSISKLQSWDKVSSCFPQYVNSKQGAINVANCQRQLTEFWTELCQREFKEIMEERNVEQKLNELDELILEAKERYTDRDQDEVNKGPAIDELSSKELVECHLYSQRMHAIHEIDERLAKVNEMNDQLAQELKDLETQVEVEKNEIGKMYDEYLGSHTDQPANVLLVQSLNDMVLELKENY", "notes": "Nsl1, S. cerevisiae; Dsn1, S. cerevisiae, with two phosphomimetic substitutions; Mtw1, S. cerevisiae; Nnf1, S. cerevisiae; also called phosphomimetic MIND; pGH62; copies: + + +"}},
  "key": {"[1]": {"biological_target": "Mif2-linker-(27-392)MBP (S. cerevisiae) (UniProt P35201)", "experiment": "optical trap force-ramp rupture assay; same beads and free proteins (10 nM each) as the attachment assay; bead on a growing microtubule tip, 1 pN preload, then a ramp of 0.25 pN/s until detachment; median rupture force of the whole chain; not single-molecule conditions; room temperature; both purified"}, "[2]": {"biological_target": "Mif2-linker-(27-392)MBP (S. cerevisiae) (UniProt P35201)", "experiment": "optical trap bead-microtubule attachment assay (self-assembly and microtubule binding); one His6-tagged subcomplex on anti-His5 polystyrene beads (10 nM on 3.5 pM beads), the other subcomplexes free at 10 nM each; the bead was brought to a single growing microtubule with the laser trap, and a bead whose contact did not persist with the laser off counted as a nonbinder; no external force; BRB80 growth buffer with 1 mM GTP, room temperature; in negative controls one subcomplex was omitted; both purified"}},
  "note": "Results are given in words; binding and its absence hold for the method and conditions named. Some results given as binding are weak or reduced against the parent protein; the word gives no strength. Tags and fused reporters may be left off the sequences shown.",
  "data": [
    {"binder": "B1", "values": [
      {"measurement": "binding", "setting": "[1]", "result": "binds"},
      {"measurement": "binding", "setting": "[2]", "result": "binds"}
    ]}
  ]
}
